The target of assay [1] is lipocalin variant D11.9 displayed on E. coli (human) (UniProt P80188). As to the kind of experiment: flow cytometry on cells; single clone FACS of E. coli displaying the lipocalin variant (EspP fusion) after six BSD selection cycles, incubated with 1 nM biotinylated hCD98hcED; detection with streptavidin/phycoerythrin; mean PE fluorescence; only the binder purified.
In assay [2] the target is lipocalin variant D11.7 displayed on E. coli (human) (UniProt P80188). The description is as above.
The target of assay [3] is lipocalin variant D11.4 displayed on E. coli (human) (UniProt P80188). Described as above.
The target of assay [4] is T1, recombinant wild type lipocalin 2 (wtLcn2), soluble (human), P80188.
T1 chain: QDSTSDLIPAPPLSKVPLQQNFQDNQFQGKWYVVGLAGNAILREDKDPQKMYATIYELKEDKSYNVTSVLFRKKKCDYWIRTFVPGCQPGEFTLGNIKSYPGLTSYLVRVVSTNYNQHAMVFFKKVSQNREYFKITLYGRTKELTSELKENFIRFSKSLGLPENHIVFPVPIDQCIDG
As to the kind of experiment: SEC; analytical SEC of the purified soluble lipocalin variants in comparison with wtLcn2; both purified. The note with it: remark: other sources report otherwise.

By UniProt entry, the sequences of proteins in these tests, tags left out. Residues count along the entry.
UniProt P08195, residues 212-630: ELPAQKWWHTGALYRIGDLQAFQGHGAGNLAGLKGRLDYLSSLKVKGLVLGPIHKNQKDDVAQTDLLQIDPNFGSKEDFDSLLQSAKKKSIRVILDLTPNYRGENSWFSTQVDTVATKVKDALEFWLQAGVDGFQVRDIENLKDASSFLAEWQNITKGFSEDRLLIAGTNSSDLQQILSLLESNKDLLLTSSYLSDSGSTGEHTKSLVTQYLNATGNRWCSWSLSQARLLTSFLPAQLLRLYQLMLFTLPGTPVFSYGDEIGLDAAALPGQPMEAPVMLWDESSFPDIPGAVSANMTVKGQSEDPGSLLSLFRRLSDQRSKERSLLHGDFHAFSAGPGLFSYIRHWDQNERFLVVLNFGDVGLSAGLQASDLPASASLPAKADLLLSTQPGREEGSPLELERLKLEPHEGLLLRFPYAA

This is an account of results in PMC7019167, “Development of a high affinity Anticalin® directed against human CD98hc for theranostic applications” (Theranostics, 2020).

These are yes or no findings as the source states them, for the method shown. Some binding calls cover weakened binding; strength is not graded here.

For the molecule “unglycosylated human CD98hc ectodomain (hCD98hcED), monobiotinylated (from UniProt P08195-2 111-529) (domain or fragment)”, the binding result in assay [1], in assay [2] and in assay [3] was “binds” each time.

B1: recombinant wild type lipocalin 2 (wtLcn2), soluble, P80188 21-198 (protein)
chain: QDSTSDLIPAPPLSKVPLQQNFQDNQFQGKWYVVGLAGNAILREDKDPQKMYATIYELKEDKSYNVTSVLFRKKKCDYWIRTFVPGCQPGEFTLGNIKSYPGLTSYLVRVVSTNYNQHAMVFFKKVSQNREYFKITLYGRTKELTSELKENFIRFSKSLGLPENHIVFPVPIDQCIDG
On to B1, for which the binding result in assay [4] is given as “no binding”.
